Earlier results in US20070254055A1, “Therapeutic Avenanthramide Compounds” (TRUSTEES OF TUFTS COLLEGE, priority 2003, published 2007).
At least one compound was matched to its structure with a doubt left.

Details: cited from earlier work

Question: With COc1ccc(C=CC(=O)Nc2ccccc2C(=O)O)cc1OC [N-(3′,4′-dimethoxycin-namoyl)anthranilic acid] as the molecule, how does the “antiallergic activity relative to the E form” value read?
Answer: over 10 times
